In PubChem BioAssay AID1671190 (National Center for Advancing Translational Sciences (NCATS), 2021):
Out of some 580,000 compounds screened, about 6,100 (1.1%) were called active. Inconclusive results, whose numbers are uncertain, are shown with a selection of clear calls. Calls come from the whole dose curve; as a rule, active = well fitted inhibition curve with a large enough effect; inconclusive = small, poorly fitted or top-dose-only effect, or another doubt; inactive = no such curve, though single readings can be large or run the other way. Potencies beside an inconclusive call are fits to weak or partial responses and may not hold up.
Potency is the fitted concentration of half-maximal effect.

Amino acid sequences for entries named in this document (tags omitted). A change or cut given only in a name is not applied to a line headed by its entry.
UniProt P18054: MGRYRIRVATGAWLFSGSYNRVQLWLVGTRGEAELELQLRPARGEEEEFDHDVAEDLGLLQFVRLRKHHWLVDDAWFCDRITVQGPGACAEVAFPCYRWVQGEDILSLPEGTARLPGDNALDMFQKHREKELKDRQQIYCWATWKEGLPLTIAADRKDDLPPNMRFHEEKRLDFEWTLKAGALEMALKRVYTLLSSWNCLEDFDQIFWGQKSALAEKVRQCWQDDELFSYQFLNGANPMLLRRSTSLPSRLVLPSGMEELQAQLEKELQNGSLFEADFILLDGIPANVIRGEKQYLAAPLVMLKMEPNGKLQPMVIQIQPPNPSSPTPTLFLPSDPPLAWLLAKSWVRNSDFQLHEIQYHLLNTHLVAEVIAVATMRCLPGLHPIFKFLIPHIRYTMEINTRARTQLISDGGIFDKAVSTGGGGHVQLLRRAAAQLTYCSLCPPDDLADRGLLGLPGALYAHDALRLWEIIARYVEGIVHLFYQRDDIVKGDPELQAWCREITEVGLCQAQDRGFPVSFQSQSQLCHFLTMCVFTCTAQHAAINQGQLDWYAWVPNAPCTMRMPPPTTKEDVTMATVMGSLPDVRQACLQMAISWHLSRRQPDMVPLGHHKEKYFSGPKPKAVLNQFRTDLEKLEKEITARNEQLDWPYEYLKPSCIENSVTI

These compounds were tested against Polyunsaturated fatty acid lipoxygenase ALOX12 (Homo sapiens) (UniProt P18054) (assay: Primary qHTS assay for inhibitors of human arachidonate 12S-lipoxygenase (ALOX12): Round 2). Conditions: purified 12hLO, xylenol orange hydroperoxide absorbance; series mostly up to 108 µM.
Method in brief: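 Purified human 12hLO (150 nM final) in 25 mM Hepes, 0.01% Triton X-100, pH 7.0 was preincubated 15 min at room temperature with compound. Then 40 uM arachidonic acid was added, 30 min. Hydroperoxide was read by Fe-XO absorbance ratio 573/405 nm.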
For `COc1ccc(C2=CC(c3cccc(OC)c3)n3nnnc3N2)cc1` (centres undefined), the Potency was inconclusive: 6.31 µM [inhibitor, full curve, poor fit]. `O=S(=O)(Nc1ccc(O)c(Sc2nc3ccccc3s2)c1)c1cc(Cl)ccc1Cl` was tested, and the Potency was active: 10 µM. For `O=C(Cn1c(-c2cccs2)cc2cc(F)ccc21)NCCc1ccc(Cl)cc1`, the Potency was “inactive”. With `Cn1ccnc1CN1C(=O)CO[C@H](c2ccc(N)cc2)[C@H]1CO` the Potency was inconclusive: 89.1 µM [inhibitor, partial curve]. In the case of `O=S(=O)(NCCO)c1ccc(I)cc1`, the Potency is reported as inconclusive: 50.1 µM [inhibitor, partial curve, poor fit]. For `COC(=O)c1sccc1NC(=O)c1c(-c2ccccc2)noc1C`, the Potency was “inactive”. `COc1cc2c(cc1OC)C(COc1ccc(C(C)C)cc1)NCC2` (centres undefined) was tested, and the Potency was “inactive”. In the case of `CCCC#Cc1ccc2c(c1)O[C@H](CN(C)C(=O)CC1CC1)[C@H](C)CN([C@@H](C)CO)S2(=O)=O`, the Potency is reported as inconclusive: 31.6 µM [inhibitor, partial curve]. In the case of `CN(Cc1ccc(F)cc1)Cc1ccc(N(C)C)cc1`, the Potency is reported as “inactive”. In the case of `CCCCSCCCNC(=O)CS(=O)Cc1nc(-c2cccc(C)c2)oc1C` (centres undefined), the Potency is reported as inconclusive: 44.7 µM [inhibitor, partial curve, poor fit]. For `C/C=C/C=C/C(=O)NCc1ccc(CN2CCCC2)cc1`, the Potency was “inactive”. `O=C(NCc1ccccn1)[C@@H]1CCCN1C(=O)[C@@H]1CCCN1C(=O)c1ccccc1` was tested, and the Potency was inconclusive: 112 µM [inhibitor, single point]. In the case of `C=CCOC(=O)Nc1nc(CCNC(=O)OCc2ccccc2)c(C(=O)OC)s1`, the Potency is reported as inconclusive: 31.6 µM [inhibitor, partial curve, poor fit]. For `CC(C)C(Cl)=NOC(=O)Nc1ccc(F)cc1`, the Potency was inconclusive: 50.1 µM [inhibitor, partial curve, poor fit]. In the case of `c1ccc(Nc2nc(NCc3ccco3)nc3c2cnn3-c2ccccc2)cc1`, the Potency is reported as inconclusive: 44.7 µM [inhibitor, partial curve, poor fit]. For `CCCCSc1nnc2c(n1)OC(c1ccc(Br)s1)Nc1ccccc1-2` (centres undefined), the Potency was inconclusive: 50.1 µM [inhibitor, partial curve, poor fit]. With `S=C(Nc1ccc2nsnc2c1)NC1CCCCC1` the Potency was inconclusive: 56.2 µM [inhibitor, single point]. `COc1ccc(/C=N/NC(=O)c2cccc(Br)c2)cc1Cn1cc(Cl)cn1` was tested, and the Potency was inconclusive: 31.6 µM [inhibitor, partial curve, poor fit]. `Cc1ccc(C2c3cc(OCc4nc(C(=O)NCC5CC5)co4)ccc3CCN2C(=O)C2CC2)cc1` (centres undefined) was tested, and the Potency was inconclusive: 31.6 µM [inhibitor, full curve, poor fit].
